# Test results published in paper doi:10.1101/2020.06.16.155333.
# Protein sequences, listed by entry. Tags and fused reporters are not part of them.
# UniProt P53350: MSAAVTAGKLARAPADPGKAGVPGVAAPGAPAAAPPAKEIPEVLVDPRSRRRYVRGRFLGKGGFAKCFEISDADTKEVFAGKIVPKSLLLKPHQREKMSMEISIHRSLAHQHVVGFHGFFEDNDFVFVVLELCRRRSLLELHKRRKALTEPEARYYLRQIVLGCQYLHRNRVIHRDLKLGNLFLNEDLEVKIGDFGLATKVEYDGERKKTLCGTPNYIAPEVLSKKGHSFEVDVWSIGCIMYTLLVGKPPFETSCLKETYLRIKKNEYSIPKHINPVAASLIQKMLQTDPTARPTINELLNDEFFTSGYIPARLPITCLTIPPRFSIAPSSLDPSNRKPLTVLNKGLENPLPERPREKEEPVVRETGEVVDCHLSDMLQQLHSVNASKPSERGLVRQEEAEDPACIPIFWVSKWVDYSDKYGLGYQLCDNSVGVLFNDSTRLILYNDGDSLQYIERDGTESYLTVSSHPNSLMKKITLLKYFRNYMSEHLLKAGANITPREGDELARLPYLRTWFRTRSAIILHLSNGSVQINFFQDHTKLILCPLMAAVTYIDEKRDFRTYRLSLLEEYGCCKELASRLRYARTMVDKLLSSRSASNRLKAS
# No constants are given. Whether binding was seen depends on the method and setting. Binding seen in cells or lysates may run through a third protein. Some entries that bind do so weakly or less than the wild type. Sequences can lack the tags named with a protein.
# B1: Vrk3 (3xFLAG-EGFP mammalian expression construct) (protein, UniProt Q8IV63 1-474)
# chain: MISFCPDCGKSIQAAFKFCPYCGNSLPVEEHVGSQTFVNPHVSSFQGSKRGLNSSFETSPKKVKWSSTVTSPRLSLFSDGDSSESEDTLSSSERSKGSGSRPPTPKSSPQKTRKSPQVTRGSPQKTSCSPQKTRQSPQTLKRSRVTTSLEALPTGTVLTDKSGRQWKLKSFQTRDNQGILYEAAPTSTLTCDSGPQKQKFSLKLDAKDGRLFNEQNFFQRAAKPLQVNKWKKLYSTPLLAIPTCMGFGVHQDKYRFLVLPSLGRSLQSALDVSPKHVLSERSVLQVACRLLDALEFLHENEYVHGNVTAENIFVDPEDQSQVTLAGYGFAFRYCPSGKHVAYVEGSRSPHEGDLEFISMDLHKGCGPSRRSDLQSLGYCMLKWLYGFLPWTNCLPNTEDIMKQKQKFVDKPGPFVGPCGHWIRPSETLQKYLKVVMALTYEEKPPYAMLRNNLEALLQDLRVSPYDPIGLPMVP
# Biological target: Myc-Plk1 (UniProt P53350)
# Test: co-IP
binder,measurement,value
B1,binding,binds
